Reference: publication doi:10.1101/266833 (bioRxiv, 2018)
Where two headings read alike, the source gives them in different places. These are yes or no findings as the source states them, for the method shown. For some of these results: In cells and extracts the contact can be indirect. Some results given as binding are weak or reduced against the parent protein; the word gives no strength. For some of these results: Where a sequence is shown, tags or fusion partners need not be part of it. One block for each binder: values may come before it.

Key:
CBP-Nmd4 (S. cerevisiae) = target: T1, CBP-Nmd4 (S. cerevisiae) (UniProt Q12129); test: pull-down
T1 sequence: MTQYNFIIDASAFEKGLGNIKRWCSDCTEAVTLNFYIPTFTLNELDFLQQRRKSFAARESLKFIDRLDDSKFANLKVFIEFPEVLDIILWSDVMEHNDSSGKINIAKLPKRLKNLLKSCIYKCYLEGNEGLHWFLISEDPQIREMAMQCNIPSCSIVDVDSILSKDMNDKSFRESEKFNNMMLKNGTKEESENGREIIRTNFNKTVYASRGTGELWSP

Upf1-TAP (S. cerevisiae) [1] = target: T2, Upf1-TAP (S. cerevisiae) (UniProt P30771); test: co-IP
T2 sequence: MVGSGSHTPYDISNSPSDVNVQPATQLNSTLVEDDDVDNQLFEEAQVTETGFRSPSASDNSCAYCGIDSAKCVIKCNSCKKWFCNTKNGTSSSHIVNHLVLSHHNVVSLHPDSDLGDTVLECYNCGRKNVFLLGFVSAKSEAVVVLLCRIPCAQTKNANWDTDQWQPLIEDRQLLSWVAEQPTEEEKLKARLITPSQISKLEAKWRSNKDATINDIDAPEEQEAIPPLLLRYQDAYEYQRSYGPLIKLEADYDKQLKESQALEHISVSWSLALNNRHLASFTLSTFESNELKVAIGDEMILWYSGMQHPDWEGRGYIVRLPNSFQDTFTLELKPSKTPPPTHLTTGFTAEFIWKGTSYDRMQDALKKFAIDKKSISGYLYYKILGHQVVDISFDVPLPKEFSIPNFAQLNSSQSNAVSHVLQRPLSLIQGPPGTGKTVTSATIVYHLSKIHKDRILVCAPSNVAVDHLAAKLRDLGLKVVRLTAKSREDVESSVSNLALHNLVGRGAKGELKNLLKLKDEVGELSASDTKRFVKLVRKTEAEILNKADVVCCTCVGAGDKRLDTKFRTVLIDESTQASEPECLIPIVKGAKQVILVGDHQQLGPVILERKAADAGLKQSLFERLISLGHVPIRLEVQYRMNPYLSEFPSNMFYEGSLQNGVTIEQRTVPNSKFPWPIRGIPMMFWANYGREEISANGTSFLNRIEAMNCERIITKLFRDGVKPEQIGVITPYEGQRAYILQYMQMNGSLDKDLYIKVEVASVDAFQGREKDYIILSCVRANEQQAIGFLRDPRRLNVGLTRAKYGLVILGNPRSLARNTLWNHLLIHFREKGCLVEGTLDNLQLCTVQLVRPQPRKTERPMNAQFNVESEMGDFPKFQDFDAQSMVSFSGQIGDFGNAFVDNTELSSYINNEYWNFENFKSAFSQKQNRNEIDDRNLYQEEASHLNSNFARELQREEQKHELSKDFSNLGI

[2] = target: T3, TAP-Upf1-CH (2-208) (S. cerevisiae) (UniProt P30771); test: co-IP
T3 sequence: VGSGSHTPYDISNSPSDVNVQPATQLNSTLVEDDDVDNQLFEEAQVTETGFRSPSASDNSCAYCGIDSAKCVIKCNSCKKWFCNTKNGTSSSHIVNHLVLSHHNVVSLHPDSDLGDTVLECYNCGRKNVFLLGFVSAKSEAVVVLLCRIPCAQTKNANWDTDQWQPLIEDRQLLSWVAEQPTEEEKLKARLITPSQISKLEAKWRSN

[3] = target: T4, TAP-Upf1-HD-Cter (208-971) (S. cerevisiae) (UniProt P30771); test: co-IP
T4 sequence: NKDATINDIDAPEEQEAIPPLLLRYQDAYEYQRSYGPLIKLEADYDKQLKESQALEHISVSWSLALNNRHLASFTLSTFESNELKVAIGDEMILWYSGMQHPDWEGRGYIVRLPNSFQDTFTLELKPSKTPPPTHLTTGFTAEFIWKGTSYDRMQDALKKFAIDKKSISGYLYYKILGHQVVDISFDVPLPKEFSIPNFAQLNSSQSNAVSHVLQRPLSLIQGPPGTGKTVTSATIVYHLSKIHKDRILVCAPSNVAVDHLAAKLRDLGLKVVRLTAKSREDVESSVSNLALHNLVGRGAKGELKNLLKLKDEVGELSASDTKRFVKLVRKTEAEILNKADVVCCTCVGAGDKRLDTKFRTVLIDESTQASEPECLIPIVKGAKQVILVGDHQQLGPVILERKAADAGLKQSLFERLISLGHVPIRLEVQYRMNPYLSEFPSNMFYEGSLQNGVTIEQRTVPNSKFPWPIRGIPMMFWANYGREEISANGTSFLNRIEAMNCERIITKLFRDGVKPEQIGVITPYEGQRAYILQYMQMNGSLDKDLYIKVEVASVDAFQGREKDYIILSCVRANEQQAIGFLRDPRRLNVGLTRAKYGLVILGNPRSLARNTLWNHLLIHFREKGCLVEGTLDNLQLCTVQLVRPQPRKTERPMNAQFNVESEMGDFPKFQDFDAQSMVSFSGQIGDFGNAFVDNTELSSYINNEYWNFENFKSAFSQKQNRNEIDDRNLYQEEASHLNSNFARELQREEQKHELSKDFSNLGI

Upf1-TAP (S. cerevisiae) [4] = target: T2, Upf1-TAP (S. cerevisiae); test: co-IP; remark: listed apart in the source
[5] = target: T5, TAP-Upf1-FL (S. cerevisiae) (UniProt P30771); test: co-IP
T5 sequence: T2 sequence

- binding (CBP-Nmd4 (S. cerevisiae)): no binding (tested: 2μg of each protein)
B1: hUpf1-HD (295-914) (domain or fragment, UniProt Q92900-2 295-914)
chain: RYEDAYQYQNIFGPLVKLEADYDKKLKESQTQDNITVRWDLGLNKKRIAYFTLPKTDSDMRLMQGDEICLRYKGDLAPLWKGIGHVIKVPDNYGDEIAIELRSSVGAPVEVTHNFQVDFVWKSTSFDRMQSALKTFAVDETSVSGYIYHKLLGHEVEDVIIKCQLPKRFTAQGLPDLNHSQVYAVKTVLQRPLSLIQGPPGTGKTVTSATIVYHLARQGNGPVLVCAPSNIAVDQLTEKIHQTGLKVVRLCAKSREAIDSPVSFLALHNQIRNMDSMPELQKLQQLKDETGELSSADEKRYRALKRTAERELLMNADVICCTCVGAGDPRLAKMQFRSILIDESTQATEPECMVPVVLGAKQLILVGDHCQLGPVVMCKKAAKAGLSQSLFERLVVLGIRPIRLQVQYRMHPALSAFPSNIFYEGSLQNGVTAADRVKKGFDFQWPQPDKPMFFYVTQGQEEIASSGTSYLNRTEAANVEKITTKLLKAGAKPDQIGIITPYEGQRSYLVQYMQFSGSLHTKLYQEVEIASVDAFQGREKDFIILSCVRANEHQGIGFLNDPRRLNVALTRARYGVIIVGNPKALSKQPLWNHLLNYYKEQKVLVEGPLNNLRESLMQFS

- binding (Upf1-TAP (S. cerevisiae) [1]): binds
- binding [2]: no binding
- binding [3]: binds
- binding (Upf1-TAP (S. cerevisiae) [4]): binds
- binding [5]: binds
B2: CBP-Nmd4 (natural protein, S. cerevisiae, UniProt Q12129 1-218, looked up)
chain: T1 sequence

- binding (Upf1-TAP (S. cerevisiae) [1]): binds
- binding (Upf1-TAP (S. cerevisiae) [4]): binds
B3: Ebs1-HA (protein, UniProt Q03466 1-884)
chain: MEPSNTQKEDLPTAFNGIKSQLNSILKSNQLFQDYALLNGFLAFVHSKLNAAILTSIESQCGKSFAADLDSFDQSSISSILDFSWESVHYPIFKWFQMWRNYILFEKENKKQQTKFIDFRKMNSKMLKFFKTVQNFYVNVINTVYKKYDISVLLPKRIIQDLKLSDIENTTNVGDILAVKTFNSSSPLAHLIPTLFHRCLLFLGTAYRYKTLLEEISNKYSISNFKKSLDFFRLASLVLPSAGETYSQAGAIFLQTGNLGIAVFNFVKGMMTKMPSPVSIKNFGALMVDNKSSLNRSLHTTIMNTYLQESKGPRTPAKEILEFYFLGLFGSVWSPTSWRDDTKPNQLNNGIKLRHLENALYETMSARYLNNIKTIFHNLIITIGGFHLLLKRRSDVSAKTLKDLRSNELDYLNFAFKYIAHILNDIVKESWSENPEVSEILGMVRIINCWIKANPMVLQYSQSNLEFVNALAYLINDIVKKKPSPSFSITEHIPKRTYWFEEDLMVKGLSFVNFQLSDFDDYEKILEMDHSLDRLIGNPPLCDKLSASSEMLLRLQAVVNISSQLLQNNNCGVEWSDNKSRYIFNKKIGFKETVKNSMKTSKQSNEKAKLQRKNKPSTTNGSISMADLERQMRSSSLDSFSPTMGYSGSSVPMAPDTFNVKPSGTITGNKVNVELLKIELSGQNADGAITNISPGYSNAAISSSNSTDESSFDLNNILSSMQQKHAEKSFAKSMQGVNEQIPANDVCHQAQRPMQGGLYSSQQPSSMSSLNSAYQNASMPPSASMVSYPYPFLNQQGQGVFPPYNAQNLQWQSEAYSLKSMNFANPTWLGDQYQTSAPSSAYAQAQRQMFQQPMQQDVGKYMQFPFDAQSNTDSMRGNSRNNMF

- binding (Upf1-TAP (S. cerevisiae) [1]): binds
- binding (Upf1-TAP (S. cerevisiae) [4]): binds
B4: Edc3-HA (protein, UniProt P39998 1-551)
chain: MSQFVGFGVQVELKDGKLIQGKIAKATSKGLTLNDVQFGDGGKSQAFKVRASRLKDLKVLTVASQSGKRKQQRQQQQQNDYNQNRGEHIDWQDDDVSKIKQQEDFDFQRNLGMFNKKDVFAQLKQNDDILPENRLQGHNRKQTQLQQNNYQNDELVIPDAKKDSWNKISSRNEQSTHQSQPQQDAQDDLVLEDDEHEYDVDDIDDPKYLPITQSLNITHLIHSATNSPSINDKTKGTVINDKDQVLAKLGQMIISQSRSNSTSLPAANKQTTIRSKNTKQNIPMATPVQLLEMESITSEFFSINSAGLLENFAVNASFFLKQKLGGRARLRLQNSNPEPLVVILASDSNRSGAKALALGRHLCQTGHIRVITLFTCSQNELQDSMVKKQTDIYKKCGGKIVNSVSSLESAMETLNSPVEIVIDAMQGYDCTLSDLAGTSEVIESRIKSMISWCNKQRGSTKVWSLDIPNGFDAGSGMPDIFFSDRIEATGIICSGWPLIAINNLIANLPSLEDAVLIDIGIPQGAYSQRTSLRKFQNCDLFVTDGSLLLDL
